Results as given in paper doi:10.1101/2024.01.24.576984 (bioRxiv, 2024).
These are yes or no findings as the source states them, for the method shown. Binding seen in cells or lysates may run through a third protein. Some entries that bind do so weakly or less than the wild type. Tags and fused reporters may be left off the sequences shown.

Amino acid sequences for entries named in this document (tags omitted).
UniProt Q9NVM9: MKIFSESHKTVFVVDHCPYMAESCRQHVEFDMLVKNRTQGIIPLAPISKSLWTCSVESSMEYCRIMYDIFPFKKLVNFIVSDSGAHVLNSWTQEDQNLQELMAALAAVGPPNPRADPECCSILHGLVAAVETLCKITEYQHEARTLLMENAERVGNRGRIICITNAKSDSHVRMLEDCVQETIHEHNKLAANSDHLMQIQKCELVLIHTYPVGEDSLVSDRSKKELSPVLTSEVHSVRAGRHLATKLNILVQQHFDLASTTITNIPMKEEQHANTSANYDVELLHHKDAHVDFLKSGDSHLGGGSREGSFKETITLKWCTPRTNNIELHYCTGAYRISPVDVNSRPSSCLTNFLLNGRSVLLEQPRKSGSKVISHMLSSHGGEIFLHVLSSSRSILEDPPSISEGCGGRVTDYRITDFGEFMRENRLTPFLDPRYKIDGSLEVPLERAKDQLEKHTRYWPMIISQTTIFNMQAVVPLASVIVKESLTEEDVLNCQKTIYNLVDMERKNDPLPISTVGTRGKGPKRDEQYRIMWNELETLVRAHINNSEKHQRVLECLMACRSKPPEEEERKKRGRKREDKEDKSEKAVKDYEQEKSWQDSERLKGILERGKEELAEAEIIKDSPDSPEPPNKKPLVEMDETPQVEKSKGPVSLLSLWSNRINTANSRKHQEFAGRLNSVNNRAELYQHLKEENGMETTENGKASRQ

Molecular target: T1, V5-SBP-ZMYND8 (human) (UniProt Q9ULU4)
T1 sequence: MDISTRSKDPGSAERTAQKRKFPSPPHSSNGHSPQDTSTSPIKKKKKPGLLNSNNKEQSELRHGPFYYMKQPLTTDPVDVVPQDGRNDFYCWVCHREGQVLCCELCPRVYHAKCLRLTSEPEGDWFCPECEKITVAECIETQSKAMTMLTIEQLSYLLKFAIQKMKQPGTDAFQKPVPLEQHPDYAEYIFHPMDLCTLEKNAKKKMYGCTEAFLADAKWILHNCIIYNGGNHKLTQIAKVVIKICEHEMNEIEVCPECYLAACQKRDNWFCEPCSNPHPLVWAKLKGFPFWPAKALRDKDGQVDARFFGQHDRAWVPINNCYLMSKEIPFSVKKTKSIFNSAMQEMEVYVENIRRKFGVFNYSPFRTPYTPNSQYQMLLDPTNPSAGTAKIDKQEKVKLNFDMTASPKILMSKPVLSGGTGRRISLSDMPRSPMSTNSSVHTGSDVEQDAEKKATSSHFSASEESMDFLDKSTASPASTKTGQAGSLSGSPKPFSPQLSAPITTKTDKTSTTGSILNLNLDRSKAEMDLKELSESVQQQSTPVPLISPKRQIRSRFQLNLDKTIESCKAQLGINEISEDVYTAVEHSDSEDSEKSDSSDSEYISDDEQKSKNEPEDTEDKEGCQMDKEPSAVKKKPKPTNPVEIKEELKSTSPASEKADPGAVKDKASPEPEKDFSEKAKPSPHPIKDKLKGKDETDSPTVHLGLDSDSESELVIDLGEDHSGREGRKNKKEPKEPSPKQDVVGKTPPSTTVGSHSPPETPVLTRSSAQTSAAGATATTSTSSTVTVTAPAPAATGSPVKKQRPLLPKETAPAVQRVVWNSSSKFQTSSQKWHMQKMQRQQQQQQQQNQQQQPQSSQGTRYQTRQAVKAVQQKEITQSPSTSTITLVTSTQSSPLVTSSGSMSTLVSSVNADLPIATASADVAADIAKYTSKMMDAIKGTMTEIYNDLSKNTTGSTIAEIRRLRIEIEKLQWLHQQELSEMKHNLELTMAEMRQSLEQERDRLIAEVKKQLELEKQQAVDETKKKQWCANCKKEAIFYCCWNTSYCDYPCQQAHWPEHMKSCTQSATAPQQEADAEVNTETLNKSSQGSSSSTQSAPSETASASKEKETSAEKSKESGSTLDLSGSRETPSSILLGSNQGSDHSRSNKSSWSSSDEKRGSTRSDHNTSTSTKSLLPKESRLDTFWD
Assay: co-IP

binding: binds
Substance: INTS13 (from UniProt Q9NVM9 1-706)
